Some test systems named below: WM115; WM1716; WM1745; WM3526; WM3619; WM451Lu.
Holding throughout (test): cleaved PARP positive nuclei fraction relative to DMSO control; melanoma cells; higher = more apoptosis
What all share (conditions): library dose: low library concentration; 72 h

Molecules are shown by their SMILES. The list shows a part of the results. Repeats are few or missing, and single values can be far off.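 Imaging used 1,536-well plates; nuclei positive for cleaved PARP by antibody were divided by total DNA-stained nuclei to yield the apoptosis fraction. Doses for screening kept most cells viable, and cell lines differ markedly in resting and induced cleaved-PARP levels.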

Regarding `Cn1sc(=O)n(Cc2ccccc2)c1=O` + C[C@@H]1CCN(C(=O)CC#N)C[C@@H]1N(C)c1ncnc2[nH]ccc12 [CP690550] (first compound 0.4 µM, partner dose 1 µM), the “cleaved PARP positive nuclei fraction” value in the test with WM115 came out at 106%; in the test with WM1716, 82.2%; in the test with WM1745, 92.8%; in the test on WM3526, 117%; with WM3619, 77.5%; in the test on WM451Lu it was 177%.
As for `NC1(c2ccc(-c3nc4ccn5c(=O)[nH]nc5c4cc3-c3ccccc3)cc2)CCC1` + Nc1cccc2c1CN(C1CCC(=O)NC1=O)C2=O [lenalidomide] (first compound 0.4 µM, partner dose 1 µM), the “cleaved PARP positive nuclei fraction” value in the test on WM115 amounted to 140%; in the test on WM1716, 89.2%; in the test with WM1745, 103%; in the test with WM3526 it was 88.6%; in the test with WM3619, 99.5%; with WM451Lu, 52%.
Turning to `CS(=O)(=O)c1ccc(C(=O)Nc2ccc(Cl)c(-c3ccccn3)c2)c(Cl)c1` [vismodegib] + O=C(O)[C@@H]1[O][Sb](=[O])([O][Sb]2(=[O])[O][C@H]([C@H](O)CO)[C@H](O)[C@H](C(=O)O)[O]2)[O][C@H]([C@H](O)CO)[C@@H]1O [stibogluconate] (first compound 1 µM, partner dose 2 µM), the “cleaved PARP positive nuclei fraction” value in the test with WM115 was found to be 43.7%; in the test with WM1716, 97.1%; in the test with WM1745 it was 103%; with WM3526, 23.2%; in the test on WM3619 it was 97.3%; with WM451Lu, 40.7%.
As to `COc1ccc(C2=N[C@@H](c3ccc(Cl)cc3)[C@@H](c3ccc(Cl)cc3)N2C(=O)N2CCNC(=O)C2)c(OC(C)C)c1` [Nutlin-3] + C[C@]1(c2nc3c(C(N)=O)cccc3[nH]2)CCCN1 [Veliparib] (first compound 0.1 µM, partner dose 1.4 µM), the “cleaved PARP positive nuclei fraction” value came to 232% with WM115; 88.6% in the test with WM1716; 89.4% with WM1745; 82.1% in the test with WM3526; 121% in the test with WM3619; 101% in the test with WM451Lu.
Regarding `Cn1cnc2c(F)c(Nc3ccc(Br)cc3Cl)c(C(=O)NOCCO)cc21` [selumetinib] + Clc1ccc(Nc2nnc(Cc3ccncc3)c3ccccc23)cc1 [vatalanib] (first compound 0.015 µM, partner dose 2 µM), the “cleaved PARP positive nuclei fraction” value with WM115 was found to be 143%; in the test with WM1716, 92.9%; with WM1745 it was 91.6%; in the test on WM3526 it was 103%; in the test with WM3619, 92.6%; with WM451Lu, 106%.
Regarding `NC1(c2ccc(-c3nc4ccn5c(=O)[nH]nc5c4cc3-c3ccccc3)cc2)CCC1` + O=C(O)[C@@H]1[O][Sb](=[O])([O][Sb]2(=[O])[O][C@H]([C@H](O)CO)[C@H](O)[C@H](C(=O)O)[O]2)[O][C@H]([C@H](O)CO)[C@@H]1O [stibogluconate] (first compound 0.4 µM, partner dose 2 µM), the “cleaved PARP positive nuclei fraction” value was 153% with WM115; 197% in the test with WM1716; 211% in the test on WM1745; 202% with WM3526; 99.8% in the test with WM3619; 49.2% in the test with WM451Lu.
Regarding `CC1(C)CCC(c2ccc(Cl)cc2)=C(CN2CCN(c3ccc(C(=O)NS(=O)(=O)c4ccc(N[C@H](CCN5CCOCC5)CSc5ccccc5)c(S(=O)(=O)C(F)(F)F)c4)cc3)CC2)C1` + Cn1c(=O)n(-c2ccc(C(C)(C)C#N)cc2)c2c3cc(-c4cnc5ccccc5c4)ccc3ncc21 [NVP-BEZ235] (first compound 0.4 µM, partner dose 0.004 µM), the “cleaved PARP positive nuclei fraction” value is 342% in the test with WM115; 86.7% with WM1716; 852% with WM1745; 50.2% with WM3526; 141% with WM3619; 111% with WM451Lu.
As for `NC(=O)c1ccc(N(C(N)=O)c2c(F)cccc2F)nc1-c1ccc(F)cc1F` + COc1cc(Nc2ncc(F)c(Nc3ccc4c(n3)NC(=O)C(C)(C)O4)n2)cc(OC)c1OC [Tamatinib] (first compound 0.4 µM, partner dose 0.4 µM), the “cleaved PARP positive nuclei fraction” value worked out at 88.9% in the test on WM115; 108% with WM1716; 123% with WM1745; 106% with WM3526; 94.9% in the test with WM3619; 63.2% with WM451Lu.
`NC1(c2ccc(-c3nc4ccn5c(=O)[nH]nc5c4cc3-c3ccccc3)cc2)CCC1` + COc1cc2ncnc(Nc3ccc(Oc4ccccc4)cc3)c2cc1OC [SrcI1] (first compound 0.4 µM, partner dose 2 µM): the “cleaved PARP positive nuclei fraction” value with WM115 came to 188%; in the test on WM1716, 418%; in the test on WM1745, 110%; in the test on WM3526 it was 127%; in the test on WM3619, 113%; in the test on WM451Lu, 80.1%.
`CCN(CC)CCNC(=O)c1c(C)[nH]c(/C=C2\C(=O)Nc3ccc(F)cc32)c1C` [sunitinib] + Cn1cncc1[C@@](N)(c1ccc(Cl)cc1)c1ccc2c(c1)c(-c1cccc(Cl)c1)cc(=O)n2C [tipifarnib] (first compound 0.4 µM, partner dose 0.01 µM): the “cleaved PARP positive nuclei fraction” value with WM115 is 143%; with WM1716, 47.2%; in the test on WM1745 it was 109%; in the test with WM3526, 197%; in the test on WM3619, 104%; with WM451Lu, 50.1%.
Consider `C[C@@H](N)c1ccc(C(=O)Nc2ccnc3[nH]ccc23)cc1` + NC1(c2ccc(-c3nc4ccn5c(=O)[nH]nc5c4cc3-c3ccccc3)cc2)CCC1 [MK2206] (first compound 0.4 µM, partner dose 0.4 µM), for which the “cleaved PARP positive nuclei fraction” value amounted to 309% in the test on WM115; 542% in the test with WM1716; 128% with WM1745; 205% in the test with WM3526; 104% with WM3619; 507% in the test with WM451Lu.
As for `NC(=O)c1ccc(N(C(N)=O)c2c(F)cccc2F)nc1-c1ccc(F)cc1F` + Cn1c(=O)n(-c2ccc(C(C)(C)C#N)cc2)c2c3cc(-c4cnc5ccccc5c4)ccc3ncc21 [NVP-BEZ235] (first compound 0.4 µM, partner dose 0.004 µM), the “cleaved PARP positive nuclei fraction” value in the test on WM115 was determined as 42.1%; in the test on WM1716 it was 116%; with WM1745 it was 91.4%; in the test on WM3526, 90.6%; with WM3619, 101%; in the test on WM451Lu, 155%.
As for `CCN(CC)CCNC(=O)c1c(C)[nH]c(/C=C2\C(=O)Nc3ccc(F)cc32)c1C` [sunitinib] + CCc1ccc(CCOc2ccc(CC3SC(=O)NC3=O)cc2)nc1 [pioglitazone] (first compound 0.4 µM, partner dose 2 µM), the “cleaved PARP positive nuclei fraction” value in the test on WM115 was 104%; with WM1716 it was 72.9%; in the test on WM1745, 103%; in the test with WM3526 it was 248%; with WM3619 it was 60.3%; with WM451Lu, 67.5%.
Turning to `CC(=O)O[C@@]12CO[C@@H]1C[C@H](O)[C@@]1(C)C(=O)[C@H](O)C3=C(C)[C@@H](OC(=O)[C@H](O)[C@@H](NC(=O)OC(C)(C)C)c4ccccc4)C[C@@](O)([C@@H](OC(=O)c4ccccc4)[C@H]21)C3(C)C` [Docetaxel] + C=CCn1c(=O)c2cnc(Nc3ccc(N4CCN(C)CC4)cc3)nc2n1-c1cccc(C(C)(C)O)n1 [MK1775] (first compound 0.0001 µM, partner dose 0.02 µM), the “cleaved PARP positive nuclei fraction” value in the test on WM115 was determined as 560%; in the test with WM1716, 1010%; in the test on WM1745 it was 267%; with WM3526 it was 135%; with WM3619 it was 146%; in the test on WM451Lu, 104%.
`NC1(c2ccc(-c3nc4ccn5c(=O)[nH]nc5c4cc3-c3ccccc3)cc2)CCC1` + Nc1nc(F)nc2c1ncn2[C@@H]1O[C@H](CO)[C@@H](O)[C@@H]1O [fludarabine] (first compound 0.4 µM, partner dose 0.2 µM): the “cleaved PARP positive nuclei fraction” value came out at 367% in the test with WM115; 36.1% in the test on WM1716; 88.2% in the test with WM1745; 853% with WM3526; 85.1% in the test with WM3619; 199% in the test with WM451Lu.
Regarding `CN(c1ncccc1CNc1nc(Nc2ccc3c(c2)CC(=O)N3)ncc1C(F)(F)F)S(C)(=O)=O` + COc1ccc(-c2ccc3c(N4CCOCC4)nc(N4C[C@@H](C)O[C@@H](C)C4)nc3n2)cc1CO [KU0063794] (first compound 0.08 µM, partner dose 0.02 µM), the “cleaved PARP positive nuclei fraction” value in the test with WM115 was 120%; with WM1716, 84.6%; with WM1745, 100%; in the test with WM3526 it was 171%; in the test on WM3619, 82.6%; with WM451Lu it was 41.2%.
As for `C[C@]1(O)C[C@@H](c2nc(-c3ccc4ccc(-c5ccccc5)nc4c3)c3c(N)nccn32)C1` + CC(C)(C)c1cnc(CSc2cnc(NC(=O)C3CCNCC3)s2)o1 [SNS-032] (first compound 0.4 µM, partner dose 0.01 µM), the “cleaved PARP positive nuclei fraction” value was found to be 153% with WM115; 176% in the test with WM1716; 126% in the test with WM1745; 67.4% in the test on WM3526; 103% with WM3619; 493% in the test with WM451Lu.
Take `NC(=O)c1ccc(N(C(N)=O)c2c(F)cccc2F)nc1-c1ccc(F)cc1F` + CCN(CC)CCCCNc1ncc2cc(-c3cc(OC)cc(OC)c3)c(NC(=O)NC(C)(C)C)nc2n1 [PD173074] (first compound 0.4 µM, partner dose 0.1 µM): the “cleaved PARP positive nuclei fraction” value was found to be 56.8% in the test on WM115; 85.4% with WM1716; 95.9% in the test on WM1745; 135% in the test with WM3526; 67.3% with WM3619; 71.2% in the test on WM451Lu.
As to `Cn1cnc2c(F)c(Nc3ccc(Br)cc3Cl)c(C(=O)NOCCO)cc21` [selumetinib] + C#Cc1cccc(Nc2ncnc3cc(OCCOC)c(OCCOC)cc23)c1 [erlotinib] (first compound 0.015 µM, partner dose 0.8 µM), the “cleaved PARP positive nuclei fraction” value with WM115 was 138%; in the test on WM1716, 405%; in the test with WM1745, 683%; in the test with WM3526 it was 59.8%; in the test on WM3619, 134%; in the test on WM451Lu, 11.8%.
For `NC(=O)c1ccc(N(C(N)=O)c2c(F)cccc2F)nc1-c1ccc(F)cc1F` + CCCCCCCCCCCC1=C(O)C(=O)C=C(O)C1=O [Embelin] (first compound 0.4 µM, partner dose 1.2 µM), the “cleaved PARP positive nuclei fraction” value was 48.1% in the test with WM115; 145% in the test on WM1716; 166% in the test on WM1745; 81.2% in the test with WM3526; 97.8% with WM3619; 129% in the test with WM451Lu.
Take `CS(=O)(=O)c1ccc(C(=O)Nc2ccc(Cl)c(-c3ccccn3)c2)c(Cl)c1` [vismodegib] + O=C(Nc1cccc(Cl)c1)Nc1ncc(CCNc2ncnc3ccsc23)s1 [SNS314] (first compound 1 µM, partner dose 0.0008 µM): the “cleaved PARP positive nuclei fraction” value with WM115 worked out at 32.8%; with WM1716, 10.8%; with WM1745, 83.8%; in the test on WM3526, 81.3%; with WM3619, 72.7%; with WM451Lu, 80.8%.
With `CN(c1ncccc1CNc1nc(Nc2ccc3c(c2)CC(=O)N3)ncc1C(F)(F)F)S(C)(=O)=O` + CO[C@@H]1[C@H](N(C)C(=O)c2ccccc2)C[C@H]2O[C@]1(C)n1c3ccccc3c3c4c(c5c6ccccc6n2c5c31)C(=O)NC4 [Midostaurin] (first compound 0.08 µM, partner dose 0.08 µM), the “cleaved PARP positive nuclei fraction” value is 36.2% with WM115; 311% in the test with WM1716; 120% in the test on WM1745; 36.3% with WM3526; 164% with WM3619; 269% with WM451Lu.

For the origin of these results see the supplement of paper PMC4604168 (melanoma cell lines).
